From doi:10.1101/283192
Results are given in words; binding and its absence hold for the method and conditions named. For some of these results: Binding seen in cells or lysates may run through a third protein. Some results given as binding are weak or reduced against the parent protein; the word gives no strength. Values belong to the substance of their own block, whether it stands above or below them.

By UniProt entry, the sequences of proteins in these tests, tags left out. Where a name states a change or a piece, a line headed by the entry shows the natural chain unless it says otherwise.
UniProt Q9UNE7, whole entry: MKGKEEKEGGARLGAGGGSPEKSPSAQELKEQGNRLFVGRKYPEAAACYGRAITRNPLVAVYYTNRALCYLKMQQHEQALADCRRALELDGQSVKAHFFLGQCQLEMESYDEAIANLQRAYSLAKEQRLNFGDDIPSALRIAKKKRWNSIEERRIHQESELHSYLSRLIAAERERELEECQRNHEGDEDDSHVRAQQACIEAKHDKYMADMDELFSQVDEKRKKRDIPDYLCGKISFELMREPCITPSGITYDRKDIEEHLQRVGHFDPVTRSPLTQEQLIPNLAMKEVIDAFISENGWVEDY

Experiments:
[1] = target: myc-CHIP-T246M (pcDNA3-mycCHIP-T246M) (human) (UniProt Q9UNE7); assay: co-IP
[2] = target: myc-CHIP-H260Q (pcDNA3-mycCHIP-H260Q) (human) (UniProt Q9UNE7); assay: native gel or EMSA
[3] = target: HA-CHIP wild type (pcDNA3-HA-CHIP) (human) (UniProt Q9UNE7); assay: co-IP
[4] = target: myc-CHIP-T246M (pcDNA3-mycCHIP-T246M) (human) (UniProt Q9UNE7); assay: native gel or EMSA

- binding [1]: binds
Substance: HA-CHIP wild type (pcDNA3-HA-CHIP) (from UniProt Q9UNE7 1-303)

- binding [2]: binds
Substance: myc-CHIP-H260Q (pcDNA3-mycCHIP-H260Q) (from UniProt Q9UNE7 1-303)

- binding [3]: binds
- binding [4]: binds
Substance: myc-CHIP-T246M (pcDNA3-mycCHIP-T246M) (from UniProt Q9UNE7 1-303)
